Results reported in the supplement of paper PMC4604168 (melanoma cell lines).
The other results are listed elsewhere or left out. Repeats are few or missing, and single values can be far off.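 The apoptosis fraction was the count of cleaved-PARP antibody-stained nuclei relative to all DNA-stained nuclei, imaged in 1,536-well plates. Screening doses were set so most cells survived, and baseline and induced cleaved-PARP levels vary greatly across cell lines.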

Tested on: C32
Assay: cleaved PARP positive nuclei fraction relative to DMSO control; melanoma cells; higher = more apoptosis
Conditions: library dose: low library concentration; 72 h

Structure (SMILES) | cleaved PARP positive nuclei fraction [%]
Cn1cc(C2=C(c3cn(C4CCN(Cc5ccccn5)CC4)c4ccccc34)C(=O)NC2=O)c2ccccc21 [Enzastaurin] + O=C(O)[C@@H]1[O][Sb](=[O])([O][Sb]2(=[O])[O][C@H]([C@H](O)CO)[C@H](O)[C@H](C(=O)O)[O]2)[O][C@H]([C@H](O)CO)[C@@H]1O [stibogluconate] (first compound 0.8 µM, partner dose 2 µM) | 84.4
C[C@]12O[C@H](C[C@]1(O)CO)n1c3ccccc3c3c4c(c5c6ccccc6n2c5c31)CNC4=O [Lestaurtinib] + Nc1ccn([C@@H]2O[C@H](CO)[C@@H](O)C2(F)F)c(=O)n1 [gemcitabine] (first compound 0.004 µM, partner dose 0.0004 µM) | 74.5
N.N.[Cl][Pt][Cl] [cisplatin] + CN1CCN(c2ccc3nc(-c4c(N)c5c(F)cccc5[nH]c4=O)[nH]c3c2)CC1 [Dovitinib] (first compound 1.6 µM, partner dose 0.1 µM) | 79.9
NC1(c2ccc(-c3nc4ccn5c(=O)[nH]nc5c4cc3-c3ccccc3)cc2)CCC1 + C[As](C)SC[C@H](NC(=O)CC[C@H](N)C(=O)O)C(=O)NCC(=O)O [Darinaparsin] (first compound 0.4 µM, partner dose 0.4 µM) | 87.5

Tested on: CBRC008 (line from a melanoma biopsy)
Assay: as above
Conditions: library dose: low library concentration; 72 h

Structure (SMILES) | cleaved PARP positive nuclei fraction [%]
O=c1[nH]nc(Sc2ncc([N+](=O)[O-])s2)n1-c1ccc2c(c1)OCCO2 + N.N.[Cl][Pt][Cl] [cisplatin] (first compound 0.2 µM, partner dose 1.6 µM) | 41.6
N.N.[Cl][Pt][Cl] [cisplatin] + C=C(c1ccc(C(=O)O)cc1)c1cc2c(cc1C)C(C)(C)CCC2(C)C [Bexarotene] (first compound 1.6 µM, partner dose 2 µM) | 312
C=C(c1ccc(C(=O)O)cc1)c1cc2c(cc1C)C(C)(C)CCC2(C)C [Bexarotene] + C[As](C)SC[C@H](NC(=O)CC[C@H](N)C(=O)O)C(=O)NCC(=O)O [Darinaparsin] (first compound 2 µM, partner dose 0.4 µM) | 44.9
Cc1cc(Nc2cc(N3CCN(C)CC3)nc(Sc3ccc(NC(=O)C4CC4)cc3)n2)n[nH]1 [Tozasertib] + Cn1cc(C2=C(c3cn(C4CCN(Cc5ccccn5)CC4)c4ccccc34)C(=O)NC2=O)c2ccccc21 [Enzastaurin] (first compound 0.006 µM, partner dose 0.8 µM) | 76.1
CCN(CC)CCNC(=O)c1c(C)[nH]c(/C=C2\C(=O)Nc3ccc(F)cc32)c1C [sunitinib] + N.N.[Cl][Pt][Cl] [cisplatin] (first compound 0.4 µM, partner dose 1.6 µM) | 60.5
Cn1cc(C2=C(c3cn(C4CCN(Cc5ccccn5)CC4)c4ccccc34)C(=O)NC2=O)c2ccccc21 [Enzastaurin] + OCc1c[nH]c2ccccc12 [Indole-3-carbinol] (first compound 0.8 µM, partner dose 0.8 µM) | 78.1
C[As](C)SC[C@H](NC(=O)CC[C@H](N)C(=O)O)C(=O)NCC(=O)O [Darinaparsin] + Nc1cccc2c1CN(C1CCC(=O)NC1=O)C2=O [lenalidomide] (first compound 0.4 µM, partner dose 1 µM) | 102
C[C@]12O[C@H](C[C@]1(O)CO)n1c3ccccc3c3c4c(c5c6ccccc6n2c5c31)CNC4=O [Lestaurtinib] + Clc1ccc(Nc2nnc(Cc3ccncc3)c3ccccc23)cc1 [vatalanib] (first compound 0.004 µM, partner dose 2 µM) | 65.5
Cn1cc(C2=C(c3cn(C4CCN(Cc5ccccn5)CC4)c4ccccc34)C(=O)NC2=O)c2ccccc21 [Enzastaurin] + O=C(O)c1ccc2c(c1)nc(Nc1cccc(Cl)c1)c1ccncc12 [CX4945] (first compound 0.8 µM, partner dose 0.4 µM) | 87.6
C[C@]12O[C@H](C[C@]1(O)CO)n1c3ccccc3c3c4c(c5c6ccccc6n2c5c31)CNC4=O [Lestaurtinib] + Nc1ncn([C@H]2C[C@H](O)[C@@H](CO)O2)c(=O)n1 [decitabine] (first compound 0.004 µM, partner dose 0.1 µM) | 36.7

2 entries picked at random from the list so far, as already listed:
Structure (SMILES) | cleaved PARP positive nuclei fraction [%]
C[C@]12O[C@H](C[C@]1(O)CO)n1c3ccccc3c3c4c(c5c6ccccc6n2c5c31)CNC4=O [Lestaurtinib] + Clc1ccc(Nc2nnc(Cc3ccncc3)c3ccccc23)cc1 [vatalanib] (first compound 0.004 µM, partner dose 2 µM) | 65.5
C[C@]12O[C@H](C[C@]1(O)CO)n1c3ccccc3c3c4c(c5c6ccccc6n2c5c31)CNC4=O [Lestaurtinib] + Nc1ncn([C@H]2C[C@H](O)[C@@H](CO)O2)c(=O)n1 [decitabine] (first compound 0.004 µM, partner dose 0.1 µM) | 36.7
